Measurements reported in PubChem BioAssay AID540256 (National Center for Advancing Translational Sciences (NCATS), 2011).
In all, about 300,000 compounds went through this assay and about 3,700 (1.2%) were called active. Inconclusive results, whose numbers are uncertain, are shown with a selection of clear calls. Calls come from the whole dose curve; tested in HEK293 cells. A potency beside an inconclusive call is a rough fit, not a confirmed value.

Experiment: qHTS for Inhibitors of binding or entry into cells for Lassa Virus; note: nearly all actives have a fitted effect of over 50% in size
Settings: Lassa virus pseudotype entry inhibition, cell reporter; activity change, negative = inhibition: at 37.9 µM (top of the series) unless noted
% is set by controls: 0 for no effect and ±100 for the full control effect; potency is the fitted concentration of half-maximal effect.

SMILES	activity change, negative = inhibition	Potency
c1ccc(CSCc2cn3ccsc3n2)cc1	inactive: 1.56%	
COc1ccc(-c2nc(CN3CCN(C(=O)c4ccco4)CC3)c(C)o2)c(OC)c1C		inconclusive: 1.26 µM [activator, single point]
O=C(NN1C(=O)c2ccccc2C1=O)C1C2CCCCC21 (stereo unspecified)		inconclusive: 14.1 µM [inhibitor, single point]
Cc1cc(C2(c3ccc(O)c(C)c3)C(=O)Nc3ccccc32)ccc1O		inconclusive: 35.5 µM [inhibitor, single point]
O=C(Cc1ccc([N+](=O)[O-])cc1)N1CCN=C1SCc1ccccc1		inconclusive: 8.91 µM [inhibitor, partial curve, poor fit]
O=C(NCCN1C(=O)S/C(=C\c2ccc(F)cc2)C1=O)c1cccc(S(=O)(=O)N2CCOCC2)c1	inactive: 1.42%	
Cc1nn(CCC(N)=O)c2nc(-c3cccs3)cc(C(F)(F)F)c12		inconclusive: 0.631 µM [inhibitor, partial curve, poor fit]
Cc1ccccc1CC1(CO)CCCN(C(=O)c2cc(Cl)ccc2F)C1 (stereo unspecified)		inconclusive: 0.891 µM [inhibitor, full curve, poor fit]
Cc1cc(/C(N)=N/OC(=O)Nc2ccccc2)no1		inconclusive: 7.94 µM [activator, partial curve]
CCCC1=C(C(=O)OCC)C(/C=C/c2ccccc2)n2ncnc2N1 (stereo unspecified)	inactive: -19%	
CCc1ccc(C(=O)COC(=O)C(Cc2c[nH]c3ccccc23)NC(=O)c2ccc(CC)cc2)cc1 (stereo unspecified)		inconclusive: 6.31 µM [inhibitor, full curve, poor fit]
COc1cccc(OC)c1C(=O)Nc1ccncc1		inconclusive: 28.2 µM [inhibitor, single point]
CCOC(=O)c1c(Nc2ccc(O)cc2)nnc(-c2ccccc2)c1-c1ccccc1		inconclusive: 6.31 µM [inhibitor, single point]
CCC(CC)C(=O)N1CCN(c2cccc(C)c2C)CC1		inconclusive: 16.4 µM [inhibitor, partial curve, poor fit]
O=C(/C=C/c1cccs1)N1CCc2ccccc21		inconclusive: 11.2 µM [inhibitor, single point]
CCCc1cc(C(=O)Nc2sc3c(c2C#N)CCC3)no1	inactive: -24.3%	
C=CCOc1ccc(/C=N/NC(=O)CN2CCCCC2)cc1OC		inconclusive: 35.5 µM [inhibitor, single point]
Cn1c(CCNC(=O)c2ccc(Cl)c(Cl)c2)nnc1SCc1ccc(Cl)c(Cl)c1	inactive: 1.03%	
Cc1ccc2c(NC(=O)C3CC3)cccc2n1		inconclusive: 1.26 µM [inhibitor, partial curve, poor fit]
Cc1cccc(N2CCN(C(c3cccs3)c3nnnn3C(C)(C)C)CC2)c1C (stereo unspecified)		inconclusive: 8.2 µM [inhibitor, partial curve, poor fit]
CC1CCCN(CCCNC(=O)c2ccc3c(c2)N(Cc2cccc(Cl)c2)C(=O)c2ccccc2S3(=O)=O)C1 (stereo unspecified)		inconclusive: 3.55 µM [inhibitor, single point]
Cc1ccc(C)c(CNC(=O)c2ccc3c(c2)nc2n3CCOC2)c1		inconclusive: 28.2 µM [inhibitor, partial curve, poor fit]

Given as comma-separated lines: part of the list above
SMILES,"activity change, negative = inhibition",Potency
Cc1nn(CCC(N)=O)c2nc(-c3cccs3)cc(C(F)(F)F)c12,,"inconclusive: 0.631 µM [inhibitor, partial curve, poor fit]"
Cc1ccccc1CC1(CO)CCCN(C(=O)c2cc(Cl)ccc2F)C1 (stereo unspecified),,"inconclusive: 0.891 µM [inhibitor, full curve, poor fit]"
Cc1cc(/C(N)=N/OC(=O)Nc2ccccc2)no1,,"inconclusive: 7.94 µM [activator, partial curve]"
CCCC1=C(C(=O)OCC)C(/C=C/c2ccccc2)n2ncnc2N1 (stereo unspecified),inactive: -19%,

(further entries)

SMILES	activity change, negative = inhibition	Potency
CCc1c(C)nc2ncnn2c1NCCc1ccc(OC)cc1		inconclusive: 6.51 µM [inhibitor, full curve, poor fit]
C=CCSc1nc(C)c2cc(C)cc(C)c2n1		inconclusive: 0.891 µM [activator, single point]
CC(C)Cc1nn2c(=O)cc(COC(=O)CNC(=O)c3ccc(C(C)(C)C)cc3)nc2s1	inactive: 18.9% [at 46.1 µM]	
CC(=O)c1cc(C)c(OC(=O)c2ccccc2)c(C)c1		inconclusive: 35.5 µM [inhibitor, single point]
O=C(CSc1nnc(COc2ccc(Cl)cc2)o1)N1CCCC1		inconclusive: 2.82 µM [inhibitor, single point]
COc1ccc(NC2=C(C(C)=O)C(c3ccc(OC)cc3)C(C(C)=O)C(C)(O)C2)cc1 (stereo unspecified)		inconclusive: 1.41 µM [inhibitor, partial curve, poor fit]
COc1ccccc1C(=O)Nc1cccc(C(=O)OCc2cc(=O)n3nc(C4CC4)sc3n2)c1		inconclusive: 2.82 µM [activator, single point]
COc1ccc(CCC(=O)Nc2nc3ccccc3[nH]2)cc1		inconclusive: 2.82 µM [activator, single point]
O=[N+]([O-])c1cccc(-c2csc(Nc3ccccc3)n2)c1		inconclusive: 17.8 µM [inhibitor, partial curve, poor fit]
COc1ccc(CNC(=O)CN(c2ccc(C)cc2)S(=O)(=O)c2c(C)noc2C)cc1		inactive
C=C(C)CN(CC)C(=O)CSc1ccc(S(=O)(=O)N2CCN(Cc3ccccc3)CC2)cn1		inconclusive: 25.1 µM [inhibitor, single point]
Fc1ccc(Nc2nc(SCc3cccc(Cl)c3)nc3ccccc23)cc1	inactive: 21% [at 46.1 µM]	
O=C(Nc1cc(F)c(Br)cc1F)c1ccc(Cl)cc1		inconclusive: 2.51 µM [activator, partial curve, poor fit]
O=C(Cc1ccccc1)Oc1ccc(N2C(=O)CCC2=O)cc1		inconclusive: 0.708 µM [inhibitor, partial curve, poor fit]
O=C(Cc1ccc(Cl)c(Cl)c1)N1CCCCC1CN1CCCC1 (stereo unspecified)		inconclusive: 1.64 µM [inhibitor, full curve, poor fit]
COc1ccc(CNC(=O)CSc2n[nH]c(-c3ccc(F)cc3)n2)cc1		inconclusive: 3.55 µM [inhibitor, partial curve]
CCOc1ccc(NC(=O)CN2CCN(CC(=O)Nc3ccc(F)cc3)CC2)cc1	inactive: -0.408%	
O=C(Nc1nc2n(n1)C(c1ccccc1)C=C(c1ccccc1)N2)c1ccccc1 (stereo unspecified)	inactive: 11.5% [at 46.1 µM]	
O=C(Nc1ccc(C(=O)N2CCCCC2)cc1)c1nsc2ccccc12	inactive: 13% [at 46.1 µM]	
O=C(Nc1cccc(C(=O)O)c1)Nc1ccc2c(c1)OCO2		active: 0.316 µM
O=C1CC(c2ccco2)Cc2nc(N3CCc4ccccc4C3)ncc21 (stereo unspecified)		inconclusive: 7.94 µM [inhibitor, partial curve, poor fit]
O=S(=O)(c1ccccc1)c1nc(-c2ccccc2)oc1N1CCOCC1	inactive: -3.38% [at 46.1 µM]	

SMILES	activity change, negative = inhibition	Potency
c1ccc(-c2nc(-c3cccs3)[nH]c2-c2ccccc2)cc1	inactive: 4.24%	
N#CCc1nc2ccc(S(=O)(=O)N3CCOCC3)cc2s1		inconclusive: 11.2 µM [activator, partial curve, poor fit]
CCc1cccc(C)c1NC(=O)c1ccc(CN2CCc3ccccc3C2)cc1		inconclusive: 3.16 µM [inhibitor, partial curve, poor fit]
O=C(Cc1ccccc1)Nc1nonc1NC(=O)c1ccccc1		inconclusive: 11.2 µM [inhibitor, single point]
CCOC(=O)c1c(NC(=O)CSc2ncnc3ccccc23)sc(C)c1C		inconclusive: 0.562 µM [activator, full curve, poor fit]
Cc1cccc(CN2C(=O)c3ccccc3Sc3ccc(C(=O)NCCN4CCOCC4)cc32)c1		inconclusive: 35.5 µM [inhibitor, single point]
CCOC(=O)N1CCN(C(=O)c2ccc3c(=O)n(CCC4=CCCCC4)c(=S)[nH]c3c2)CC1		inconclusive: 8.91 µM [inhibitor, partial curve, poor fit]
C=CCOc1ccccc1CNc1ccc2c(c1)OCCO2		active: 11.2 µM
N#CC1=C2N=C(N)c3ccccc3N2C2=C(C(=O)CCC2)C1c1ccc(Cl)cc1 (stereo unspecified)		inconclusive: 29.1 µM [inhibitor, single point]
COc1cc(/C=C/C(=O)N2CCCc3ccccc32)cc(OC)c1OC		inconclusive: 29.1 µM [inhibitor, single point]
COc1ccc(C)cc1NC(=O)COC(C)=O		inconclusive: 18.3 µM [activator, partial curve, poor fit]
CCC(C)NC(=O)Cn1cccc1C(=O)c1ccccc1 (stereo unspecified)		inconclusive: 0.316 µM [activator, partial curve, poor fit]
Clc1ccc(Nc2nc(NCCN3CCOCC3)nc(N3CCOCC3)n2)cc1		inconclusive: 20 µM [inhibitor, single point]
Cc1noc(C)c1COC(=O)c1ccc2c(c1)OCO2	inactive: -9.74%	
Cc1ccccc1NS(=O)(=O)c1cc(C(=O)NCCC2=CCCCC2)ccc1Cl		inconclusive: 29.1 µM [inhibitor, single point]
COC(=O)C1=CN(c2cccc(Cl)c2)C=C(C(=O)OC)C1c1cccc(OC)c1		inconclusive: 1.12 µM [inhibitor, full curve, poor fit]
Clc1cccc(CN2CCc3c([nH]c4ccccc34)C2)c1		inconclusive: 14.1 µM [inhibitor, partial curve, poor fit]
Cc1ccc(CN2CC(C(=O)N3CCN(c4ccccc4O)CC3)CC2=O)cc1 (stereo unspecified)		active: 11.2 µM
CCN(CC)c1cc(C)c2cc(NC(=O)c3cccs3)ccc2n1		inconclusive: 22.4 µM [inhibitor, single point]
COc1cccc(N2CCN(C(=S)Nc3ccccc3OC)CC2)c1		inconclusive: 3.16 µM [inhibitor, single point]
O=[N+]([O-])c1ccccc1C=NN1CCCCCC1		inconclusive: 35.5 µM [activator, partial curve, poor fit]
Cc1ccc(-n2c(C)nnc2SCC(=O)N2CCOCC2)cc1		inconclusive: 0.562 µM [activator, full curve, poor fit]
